## Library screening results

From ChEMBL document CHEMBL3988442, “University of Dundee, Small-Polar-MMV Screening Library” (2021).

Each number is a percent effect as filed. The record does not define 0% and 100%; most values in the screen are far below 50% and negative numbers occur (in some assays of this library far below -100). Compounds were drawn at random from those tested, without regard to their results.

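Viability assay of Plasmodium falciparum sporozoites; the read-out is not stated. The concentration is filed as 10 mM, unlikely as a test dose, so the dose is not known. Direction is inferred from retests: higher values go with lower viability. Strong results were mostly tested again. Of about 34,000 compounds tested this way, about 280 (0.84%) reached 50% or more in at least one test.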

| Compound | effect |
|---|---|
| `O=C(Cc1ccccc1)N1Cc2nccn2CC(CN2CCCC2)C1.O=C(O)C(F)(F)F` (centres undefined) | 4.04 |
| `O=C(O)C(F)(F)F.[H][C@@]12CN(Cc3ccc(OC)cc3)C[C@]1([H])[C@@H]2CC(=O)N1CCCC1` | -1.54 |
| `O=C(CC(F)(F)F)N1CCc2onc(Cn3cccn3)c2C1` | 10.71 |
| `CC(NC(=O)c1cccs1)C(=O)Nc1cccnc1N1CCCCC1` (centres undefined) | 10.7 |
| `NC[C@H]1CC[C@H](C(NC(=O)c2cccc(F)c2)c2ccccn2)CC1` (some centres undefined) | -7.538 |
| `CN(CCc1ccccn1)S(=O)(=O)N1CCCC1c1ccco1` (centres undefined) | 0.2506 |
| `CC(=O)N1CCCC2(CCN(C(=O)c3ccc(Cl)c(C(F)(F)F)c3)C2)C1` (centres undefined) | -14.36 |
| `[H][C@@]12CNC[C@]1([H])CN(C(=O)c1ccc(F)c(F)c1)C2` | 0.1711 |
| `Cc1csc(CNC(=O)N(C)Cc2cnn(C)c2)n1` | 3.258 |
| `CSc1nsc(NC(=O)c2cc(C3CC3)nn2C)n1` | 22.4 |
| `Cc1oc(C(=O)O)cc1S(=O)(=O)Nc1ccc(Cl)c(F)c1` | 9.485 |
| `Cc1ccc(N2CCC3(CCN(C(=O)c4ccsc4)CC3)C2)nn1` | -13.99 |
| `CCS(=O)(=O)N(C)CCCNC(=O)c1cc(Cl)cc2cccnc12` | -5.54 |
| `Cc1cnn(CC2CCCN2C(=O)c2ccc3[nH]nnc3c2)c1` (centres undefined) | -10.02 |
| `Cn1cc(C#N)c(=O)n(CC(O)c2ccccc2F)c1=O` (centres undefined) | 9.664 |
| `COCC1CN(Cc2ccncc2)Cc2nn(C)cc21` (centres undefined) | 10.58 |
| `Cc1ncsc1-c1nnc(C2CCN(Cc3ccccc3F)CC2)o1` | 8.703 |
| `Cc1ccc2cc(CNCCCO)c(=O)[nH]c2c1` | 6.517 |
| `O=C1c2ncccc2C(CCO)N1Cc1ccccc1` (centres undefined) | -7.368 |
| `CC(C)c1nnc2n1CCN(C(=O)c1ccnc(N(C)C)c1)C2` | -14.22 |
| `CCn1ccnc1CN(C)C1CCCN(CCc2ccccc2)C1` (centres undefined) | -4.798 |
| `O=C(CC1CCN(c2cccnn2)CC1)Nc1cccnc1` | 3.893 |
| `O[C@H]1CN(Cc2cccc(C(F)(F)F)c2)CC[C@@]12CCCO2` | -0.7803 |
| `CCOC(=O)CCC(=O)N1CCC(Oc2ccc(C(F)(F)F)cn2)CC1` | -9.274 |
| `Cc1cc(C)n(CC2CCCN2C(=O)c2cccn3ccnc23)n1` (centres undefined) | 0.4468 |
| `COc1c(C2CCCN2C(=O)c2ccc(O)nc2)c(C)nn1C` (centres undefined) | -4.932 |
| `Cc1noc(C)c1-c1cncc(C2CCCN2Cc2cn(C)cn2)n1` (centres undefined) | 0.8223 |
| `Cc1cc(C(=O)N2CCCC(n3cccn3)C2)c(C)n1C1CC1` (centres undefined) | 3.174 |
| `NC(=O)CN1CCCC(Cc2ccc(N3CCOCC3)nn2)C1` (centres undefined) | 2.154 |
| `Cc1nc2ccccc2nc1CN1CCn2nc(CCC(=O)O)cc2C1` | 3.596 |
| `CCCc1cc(C(=O)NCCN2CCCS2(=O)=O)[nH]n1` | 8.358 |
| `O=C(O)C(F)(F)F.O=C(O)C(F)(F)F.[H][C@@]12CCCO[C@]1([H])[C@H](N(C)C)CN(Cc1ccco1)C2` | 1.902 |
| `CCc1nnc(Nc2cccc(C3CCN(c4cnccn4)CC3)n2)s1` | 1.108 |
| `O=C(NCCN1CCC(c2cccs2)CC1)Nc1cccs1` | -5.549 |
| `Cc1cccc(OC2CN(C(=O)C3CC(=O)N(C4CC4)C3)C2)c1` (centres undefined) | -21.66 |
| `O=C(C1CC1)N1Cc2[nH]nc(COCc3cccnc3)c2C1.O=C(O)C(F)(F)F.O=C(O)C(F)(F)F` | 0.3466 |
| `O=S(=O)(Nc1ccc2c(c1)OCCO2)N1CCCCC1` | 3.044 |
| `Cc1cnnn1Cc1ncn2c1CN(Cc1cccs1)CCC2.O=C(O)C(F)(F)F` | -10.06 |
| `CC(C)Sc1ncccc1C(=O)NCc1ccoc1` | 6.386 |
| `CNC(=O)c1ccc(C2CN(C(=O)c3c[nH]nc3C)CCO2)nc1` (centres undefined) | 6.281 |
| `CC1Cc2cc(-c3cncn3CC(=O)NC(C)(C)C)ccc2N1C.Cl` (centres undefined) | -0.3428 |
| `Cc1cccnc1NC(=O)NC(C)Cn1cccn1` (centres undefined) | -3.925 |
| `Cc1n[nH]c(C)c1NC(=O)Nc1cccnc1N1CCCC1` | 0.1304 |
| `COc1cc(NC(=O)CCn2nc(-c3cccs3)oc2=O)cc(OC)c1` | -5.352 |
| `O=C(O)C(F)(F)F.[H][C@@]12CCN(S(C)(=O)=O)[C@@]1([H])CCN2Cc1cc(C)c(C)o1` | 3.08 |
| `CCCn1cc(C(=O)N(C)Cc2nc(-c3ccccn3)no2)c(C)n1` | -3.004 |
| `CC(NC(=O)c1cccs1)C(=O)NCc1ccccn1` (centres undefined) | 12.76 |
| `CC(=O)N1CCN(c2cc(C3CN(C(C)=O)CCO3)nc(C)n2)CC1` (centres undefined) | 7.901 |
| `[H][C@]12C[C@H](C(=O)NCC3CC3)N(C)[C@@]1([H])CN(Cc1ccoc1)C2` | 4.874 |
| `O=C(c1cc(Cl)c[nH]1)N(CCCO)Cc1cccnc1` | -9.649 |
| `CC(C)c1ncc(CN2C[C@@H](CN3CCCCC3)[C@@H](CO)C2)cn1` | 9.112 |
| `CNc1cccc(C2CCCN(C(=O)Cc3ccccc3)C2)n1` (centres undefined) | 11.99 |
| `O=C(O)C(F)(F)F.O=C(c1ccccn1)N1CCc2ncc(Cn3cccn3)n2CC1` | 4.384 |
| `CC(C)CNc1nccc(-c2cnc3sc(Cl)cn3c2=O)n1` | 10.75 |
| `Cn1cnc2c(-c3cccnc3)nc(C3CCN(S(C)(=O)=O)CC3)cc21` | 0.2555 |
| `Fc1cccc(C2CCCCN2Cc2nc(-c3cnccn3)no2)c1` (centres undefined) | -5.089 |
| `Cc1oncc1C(=O)NCc1cc(=O)n2c(n1)CN(C)CCC2.O=C(O)C(F)(F)F` | -11.97 |
| `CC1c2ncc(CN3CCN(C)CC3)n2CCN1Cc1cccnc1.O=C(O)C(F)(F)F.O=C(O)C(F)(F)F.O=C(O)C(F)(F)F.O=C(O)C(F)(F)F` (centres undefined) | -15.04 |
| `Cc1nc(C(=O)N2CCCC2c2cnn(C)c2)ccc1C#N` (centres undefined) | 13.06 |
| `CCCC(NC(=O)c1ccc(OC)cc1C)c1nnn[nH]1` (centres undefined) | -20.1 |
| `COc1ccc(NC(=O)c2ccc(-n3ncc(C#N)c3N)cc2)cn1` | -4.03 |
| `COc1ccc(CNCc2ccnc(N3CCCCC3)c2)cc1OC` | -7.407 |
| `Cc1nc(CN2CCCC2c2[nH]ncc2C(=O)N(C)C)cs1` (centres undefined) | 6.341 |
| `O=C(CS(=O)(=O)Cc1nnnn1C1CC1)NCC1CC1` | -2.514 |
| `O=C(O)c1ccc(CN2CCC(c3ccnc4ccnn34)CC2)cc1` | 7.51 |
| `Fc1cccc(CN2CCC(c3noc(-c4ccncc4)n3)CC2)c1F` | 2.373 |
| `c1cnnc(N2CCCC2CNCc2noc(C3CC3)n2)c1` (centres undefined) | 3.98 |
| `Cc1nc(N2CCN(C(=O)C(C)(C)C)CC2)cc(-n2cnc(C)c2C)n1` | -13.96 |
| `Cc1ccc(CN2CCc3ncc(CNC(=O)C4CCC4)n3CC2)o1.O=C(O)C(F)(F)F` | -2.018 |
| `CN(CCc1ccccc1)Cc1cnc(C2(C)CCCCO2)nc1` (centres undefined) | 3.547 |
| `CC(C)c1nccn1CCCNC(=O)c1ccc(N(C)C)nc1` | -5.15 |
| `CC(C)CCC(=O)NCCc1ccn(-c2ccccc2)n1` | 1.553 |
| `CC(NC(=O)NCCCn1cncn1)c1ccc2c(c1)OCCO2` (centres undefined) | -3.592 |
| `COCCO[C@H]1CCN(C(=O)c2cnccn2)[C@H]1Cc1ccncc1` | 0.2604 |